Assay results taken from publication PMC5031558.
These are yes or no findings as the source states them, for the method shown. Binding calls can cover weak binding; strength is not graded here.

Sequences of proteins named here, by UniProt entry; tags and fusion partners are left off. A change or cut given only in a name is not applied to a line headed by its entry.
UniProt Q9NQC7: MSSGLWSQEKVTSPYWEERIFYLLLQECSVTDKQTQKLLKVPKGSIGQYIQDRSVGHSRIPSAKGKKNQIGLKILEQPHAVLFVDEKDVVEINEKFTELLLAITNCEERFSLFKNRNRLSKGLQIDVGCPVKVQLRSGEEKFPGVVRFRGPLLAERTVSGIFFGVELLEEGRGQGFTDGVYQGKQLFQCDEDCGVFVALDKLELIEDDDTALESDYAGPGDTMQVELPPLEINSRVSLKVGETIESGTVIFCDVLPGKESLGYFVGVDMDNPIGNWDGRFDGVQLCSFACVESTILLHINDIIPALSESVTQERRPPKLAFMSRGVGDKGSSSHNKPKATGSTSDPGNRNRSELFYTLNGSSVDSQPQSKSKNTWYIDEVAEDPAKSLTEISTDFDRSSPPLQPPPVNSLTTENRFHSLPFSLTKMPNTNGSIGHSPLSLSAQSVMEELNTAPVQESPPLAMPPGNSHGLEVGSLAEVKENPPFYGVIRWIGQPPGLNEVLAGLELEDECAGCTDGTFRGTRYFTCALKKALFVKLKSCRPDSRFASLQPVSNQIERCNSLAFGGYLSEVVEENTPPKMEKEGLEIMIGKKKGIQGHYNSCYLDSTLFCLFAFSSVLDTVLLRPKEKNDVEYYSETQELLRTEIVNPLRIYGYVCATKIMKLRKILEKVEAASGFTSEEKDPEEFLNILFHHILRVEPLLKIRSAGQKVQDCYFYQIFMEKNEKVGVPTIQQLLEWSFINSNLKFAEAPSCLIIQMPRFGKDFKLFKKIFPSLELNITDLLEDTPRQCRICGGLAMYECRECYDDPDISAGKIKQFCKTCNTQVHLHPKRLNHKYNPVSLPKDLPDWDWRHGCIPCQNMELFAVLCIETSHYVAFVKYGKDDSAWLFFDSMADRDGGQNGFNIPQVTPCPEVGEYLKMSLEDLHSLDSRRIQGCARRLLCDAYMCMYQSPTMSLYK

Target: T1, SPATA2 PUB domain (aa 1–241) (UniProt Q9UM82)
T1 sequence: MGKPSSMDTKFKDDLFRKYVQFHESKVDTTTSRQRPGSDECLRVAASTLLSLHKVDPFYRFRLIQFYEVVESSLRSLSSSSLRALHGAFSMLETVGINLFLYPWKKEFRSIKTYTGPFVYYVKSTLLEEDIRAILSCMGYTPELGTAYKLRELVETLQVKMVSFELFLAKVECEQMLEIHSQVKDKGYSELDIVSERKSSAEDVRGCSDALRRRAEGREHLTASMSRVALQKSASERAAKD
Assay: SPR; fraction of CYLD variant bound to SPATA2 PUB against varying CYLD concentrations; kinetic and equilibrium fits; both purified

binding: binds weakly
Substance: CYLD ΔB-box (purified USP domain without the B-box) (from UniProt Q9NQC7) (domain or fragment)
